# Values from PubChem BioAssay AID1508597 (Cure First, 2020).
# Assay: 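Genes whose silencing sensitises or protects ovarian cancer cells against rucaparib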 (primary screen)
# Cells: human ovarian carcinoma lines grown from tumours: OCI-P5x (papillary serous) and OCI-C5x (clear cell)
# Reagent: siRNA pool against human genes, 1.25 pmol siRNA per well
# Duration: 72 h or 96 h, depending on the cell culture
# Conditions: rucaparib 20 µM (about IC30) or vehicle, present until read-out
# Rucaparib or vehicle: Rucaparib
# Cell line: OCI-C5x (clear cell)
# Measured: 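ATP luminescence measured at 72 or 96 h according to the culture, then normalised and expressed as percent viability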
# Scale: viability, normalised: higher = more viable cells remaining
# Active means: 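Active when normalised viability falls below 80 percent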
# Meaning of the calls: active = viability under 80%; inactive = viability 80% or more
# This is a random part of the about 2,100 reagents, under one of the conditions tested. 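Calls flag viability under 80% in either arm, not effects specific to rucaparib; the reference for percent is not stated.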 Unmarked entries are inactive. No sequences are given here. The record does not give: the 100% reference.
Gene,technical replicate,"viability, normalised (%)"
H4C13 (H4 clustered histone 13),1,39.1 (active)
H4C13 (H4 clustered histone 13),2,41.7 (active)
H4C13 (H4 clustered histone 13),3,51.4 (active)
ENPP6 (ectonucleotide pyrophosphatase/phosphodiesterase 6),1,70.6 (active)
ENPP6 (ectonucleotide pyrophosphatase/phosphodiesterase 6),2,67.1 (active)
ENPP6 (ectonucleotide pyrophosphatase/phosphodiesterase 6),3,60.9 (active)
DDX42 (DEAD-box helicase 42),1,49.1 (active)
DDX42 (DEAD-box helicase 42),2,41.2 (active)
DDX42 (DEAD-box helicase 42),3,40.9 (active)
PRMT2 (protein arginine methyltransferase 2),1,68.9 (active)
PRMT2 (protein arginine methyltransferase 2),2,51.8 (active)
PRMT2 (protein arginine methyltransferase 2),3,44.7 (active)

Look-ups from the entries so far:
Under “viability, normalised (%)”, DDX42 (DEAD-box helicase 42), technical replicate 1 shows 49.1 (active)
PRMT2 (protein arginine methyltransferase 2), technical replicate 3, viability, normalised (%) = 44.7 (active)

The results go on:
Gene,technical replicate,"viability, normalised (%)"
ETNK2 (ethanolamine kinase 2),1,53.4 (active)
ETNK2 (ethanolamine kinase 2),2,46.1 (active)
ETNK2 (ethanolamine kinase 2),3,38.1 (active)
CHD1L (chromodomain helicase DNA binding protein 1 like),1,59.2 (active)
CHD1L (chromodomain helicase DNA binding protein 1 like),2,62.6 (active)
CHD1L (chromodomain helicase DNA binding protein 1 like),3,48.5 (active)
RIOX1 (ribosomal oxygenase 1),1,51.1 (active)
RIOX1 (ribosomal oxygenase 1),2,45.1 (active)
RIOX1 (ribosomal oxygenase 1),3,34.9 (active)
DHX16 (DEAH-box helicase 16),1,65.6 (active)
DHX16 (DEAH-box helicase 16),2,68.5 (active)
DHX16 (DEAH-box helicase 16),3,54.4 (active)
